For the test, the system named is Lymphoma 4 ip in BDF1 mice, median survival. Put plainly: NCI In Vivo Anticancer Drug Screen. Data for tumor model Lymphoma 4 (intraperitoneal) in B6D2F1 (BDF1) mice. The settings on record: T/C endpoint: median survival time, schedule: Q01DX010 (ip), vehicle: saline, higher T/C = longer survival. The method, then:
The antitumor activity of compounds was measured in mice bearing transplantable tumors. Survival or tumor size were measured and the results are expressed as the measurement made in the treated group (T) divided by the measurement made in the vehicle treated control group (C). The tumor model used in this assay is Lymphoma 4 (intraperitoneal) in B6D2F1 (BDF1) mice

Structures are written as SMILES. The list shows only some results of the screen, not a fair sample: it covers a few groups of compounds. Not every dose and run of a compound is shown. T/C: endpoint of the treated group in % of that of the vehicle group. Where survival is the endpoint, this PubChem deposit counts one and a half times the control or more as active, and values a quarter to a half above the control carry no call in these data; other NCI protocols may use other cut-offs. Some T/C values are marked as having no survivor count here; that says nothing about deaths at the dose. Schedules are NCI's codes, read here as Q, the interval in days (D) or hours (H), X, the number of doses. Some doses were run more than once; the values are given in rising order.

With `NC1CCCCC1.NP(=O)(O)N(CCCl)CCCl`, the T/C reads like this: (dose: 15.6 mg/kg/injection) 146 % of control [survivor count not shown]; (dose: 31.3 mg/kg/injection) 181 % of control [survivor count not shown]; (dose: 62.5 mg/kg/injection) 131 % of control [survivor count not shown].
Regarding `CC(C(=O)O)N(CCCl)CCCl` (stereo not given), the T/C is, setting by setting: (dose: 0.5 mg/kg/injection) 126 % of control [survivor count not shown]; (dose: 1.0 mg/kg/injection) 139 [survivor count not shown] and 140 % of control [survivor count not shown]; (dose: 2.0 mg/kg/injection) 135 [survivor count not shown] and 150 % of control [survivor count not shown]; (dose: 4.0 mg/kg/injection) 133 [survivor count not shown] and 164 % of control [survivor count not shown].
On to `ClCCNCCCl`, for which the T/C is 133 % of control [survivor count not shown] (dose: 9.4 mg/kg/injection); 139 [survivor count not shown] and 153 % of control [survivor count not shown] (dose: 18.8 mg/kg/injection); 90 [survivor count not shown] and 214 % of control [survivor count not shown] (dose: 37.5 mg/kg/injection).
Regarding `NC(Cc1cccc(N(CCCl)CCCl)c1)C(=O)O` (stereo not given), the T/C is 145 % of control [survivor count not shown] (dose: 0.63 mg/kg/injection); 125 % of control [survivor count not shown] (dose: 1.25 mg/kg/injection); 93 % of control [survivor count not shown] (dose: 2.5 mg/kg/injection); 105 % of control [survivor count not shown] (dose: 313.0 micrograms/kg/injection); 105 % of control [survivor count not shown] (dose: 625.0 micrograms/kg/injection); 150 % of control [survivor count not shown] (dose: 1250.0 micrograms/kg/injection). For the same molecule, the T/C (dose: 2500.0 micrograms/kg/injection) was 158 % of control [survivor count not shown].
Regarding `ClCCN(CCCl)Cc1nc2ccccc2[nH]1`, the T/C was 106 [survivor count not shown] and 111 % of control [survivor count not shown] (dose: 1.25 mg/kg/injection); 123 [survivor count not shown] and 127 % of control [survivor count not shown] (dose: 2.5 mg/kg/injection); 113 [survivor count not shown] and 153 % of control [survivor count not shown] (dose: 5.0 mg/kg/injection); 107 [survivor count not shown] and 110 % of control [survivor count not shown] (dose: 10.0 mg/kg/injection).
For the molecule `O=C(O)CN(CCCl)CCCl`, the T/C (dose: 0.63 mg/kg/injection) is 120 % of control [survivor count not shown]; the T/C (dose: 1.25 mg/kg/injection) is 132 [survivor count not shown] and 133 % of control [survivor count not shown]; the T/C (dose: 2.5 mg/kg/injection) is 140 [survivor count not shown] and 153 % of control [survivor count not shown]; the T/C (dose: 5.0 mg/kg/injection) was 146 [survivor count not shown] and 160 % of control [survivor count not shown].
